From ChEMBL document CHEMBL5674883, “The Heterochromatin Landscape in Migrating Cells and the Importance of H3K27me3 for Associated Transcriptome Alterations” (Cells, 2018)
This continues a long series; more values of the same kind are listed elsewhere.

The chains behind the UniProt entries cited, without tags or fusion partners.
UniProt Q61188, whole entry: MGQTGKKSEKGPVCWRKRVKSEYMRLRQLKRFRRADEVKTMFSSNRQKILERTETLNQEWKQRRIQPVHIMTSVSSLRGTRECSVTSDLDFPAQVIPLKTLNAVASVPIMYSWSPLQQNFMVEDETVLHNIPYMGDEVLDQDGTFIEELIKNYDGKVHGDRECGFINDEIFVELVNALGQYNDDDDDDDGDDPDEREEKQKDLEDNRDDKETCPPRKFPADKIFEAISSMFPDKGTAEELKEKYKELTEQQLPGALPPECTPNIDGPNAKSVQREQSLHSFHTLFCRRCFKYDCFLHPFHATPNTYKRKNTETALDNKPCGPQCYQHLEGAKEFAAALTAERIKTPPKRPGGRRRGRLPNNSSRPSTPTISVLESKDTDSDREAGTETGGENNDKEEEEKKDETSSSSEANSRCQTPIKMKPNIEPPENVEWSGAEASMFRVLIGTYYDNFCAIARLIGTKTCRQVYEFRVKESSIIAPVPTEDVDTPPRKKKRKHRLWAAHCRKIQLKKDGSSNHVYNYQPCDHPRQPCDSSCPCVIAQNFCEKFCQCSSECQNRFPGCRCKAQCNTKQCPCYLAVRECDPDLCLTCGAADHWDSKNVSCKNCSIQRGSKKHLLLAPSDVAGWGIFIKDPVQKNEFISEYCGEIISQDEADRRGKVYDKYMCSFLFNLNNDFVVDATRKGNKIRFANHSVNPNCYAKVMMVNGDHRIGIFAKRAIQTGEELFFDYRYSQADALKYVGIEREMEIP

Tests used:
Type in all cases: cell-based
[1] = biological target: Histone-lysine N-methyltransferase EZH2 (Mus musculus) (UniProt Q61188); assay: Inhibition of EZH2 in mouse B16-F1 migrating cells assessed as fold change in H3K27me3-buffered regulated Rap2b-mRNA expression at 3 uM measured by ChIP-seq analysis relative to control cells
[2] = biological target: Histone-lysine N-methyltransferase EZH2 (Mus musculus) (UniProt Q61188); assay: Inhibition of EZH2 in mouse B16-F1 migrating cells assessed as fold change in H3K27me3-buffered regulated Grhpr-mRNA expression at 3 uM measured by ChIP-seq analysis relative to control cells
[3] = biological target: Histone-lysine N-methyltransferase EZH2 (Mus musculus) (UniProt Q61188); assay: Inhibition of EZH2 in mouse B16-F1 migrating cells assessed as fold change in H3K27me3-independent regulated Mphosph8-mRNA expression at 3 uM measured by ChIP-seq analysis relative to control cells
[4] = biological target: Histone-lysine N-methyltransferase EZH2 (Mus musculus) (UniProt Q61188); assay: Inhibition of EZH2 in mouse B16-F1 migrating cells assessed as fold change in H3K27me3-buffered regulated Hsd17b7-mRNA expression at 3 uM measured by ChIP-seq analysis relative to control cells
[5] = biological target: Histone-lysine N-methyltransferase EZH2 (Mus musculus) (UniProt Q61188); assay: Inhibition of EZH2 in mouse B16-F1 migrating cells assessed as fold change in H3K27me3-buffered regulated Ston1-mRNA expression at 3 uM measured by ChIP-seq analysis relative to control cells
[6] = biological target: Histone-lysine N-methyltransferase EZH2 (Mus musculus) (UniProt Q61188); assay: Inhibition of EZH2 in mouse B16-F1 migrating cells assessed as fold change in H3K27me3-buffered regulated Pank1-mRNA expression at 3 uM measured by ChIP-seq analysis relative to control cells
[7] = biological target: Histone-lysine N-methyltransferase EZH2 (Mus musculus) (UniProt Q61188); assay: Inhibition of EZH2 in mouse B16-F1 migrating cells assessed as fold change in H3K27me3-buffered regulated Bach2-mRNA expression at 3 uM measured by ChIP-seq analysis relative to control cells
[8] = biological target: Histone-lysine N-methyltransferase EZH2 (Mus musculus) (UniProt Q61188); assay: Inhibition of EZH2 in mouse B16-F1 migrating cells assessed as fold change in H3K27me3-buffered regulated Cdc42se1-mRNA expression at 3 uM measured by ChIP-seq analysis relative to control cells
[9] = biological target: Histone-lysine N-methyltransferase EZH2 (Mus musculus) (UniProt Q61188); assay: Inhibition of EZH2 in mouse B16-F1 migrating cells assessed as fold change in H3K27me3-buffered regulated Gpc1-mRNA expression at 3 uM measured by ChIP-seq analysis relative to control cells
[10] = biological target: Histone-lysine N-methyltransferase EZH2 (Mus musculus) (UniProt Q61188); assay: Inhibition of EZH2 in mouse B16-F1 migrating cells assessed as fold change in H3K27me3-buffered regulated Foxc1-mRNA expression at 3 uM measured by ChIP-seq analysis relative to control cells
[11] = biological target: Histone-lysine N-methyltransferase EZH2 (Mus musculus) (UniProt Q61188); assay: Inhibition of EZH2 in mouse B16-F1 migrating cells assessed as fold change in H3K27me3-buffered regulated Arid5b-mRNA expression at 3 uM measured by ChIP-seq analysis relative to control cells
[12] = biological target: Histone-lysine N-methyltransferase EZH2 (Mus musculus) (UniProt Q61188); assay: Inhibition of EZH2 in mouse B16-F1 migrating cells assessed as fold change in H3K27me3-independent regulated D130058E05Rik-mRNA expression at 3 uM measured by ChIP-seq analysis relative to control cells
[13] = biological target: Histone-lysine N-methyltransferase EZH2 (Mus musculus) (UniProt Q61188); assay: Inhibition of EZH2 in mouse B16-F1 migrating cells assessed as fold change in H3K27me3-buffered regulated Edaradd-mRNA expression at 3 uM measured by ChIP-seq analysis relative to control cells
[14] = biological target: Histone-lysine N-methyltransferase EZH2 (Mus musculus) (UniProt Q61188); assay: Inhibition of EZH2 in mouse B16-F1 migrating cells assessed as fold change in H3K27me3-buffered regulated Mvd-mRNA expression at 3 uM measured by ChIP-seq analysis relative to control cells
[15] = biological target: Histone-lysine N-methyltransferase EZH2 (Mus musculus) (UniProt Q61188); assay: Inhibition of EZH2 in mouse B16-F1 migrating cells assessed as fold change in H3K27me3-buffered regulated Snhg17-mRNA expression at 3 uM measured by ChIP-seq analysis relative to control cells
[16] = biological target: Histone-lysine N-methyltransferase EZH2 (Mus musculus) (UniProt Q61188); assay: Inhibition of EZH2 in mouse B16-F1 migrating cells assessed as fold change in H3K27me3-independent regulated Isg20-mRNA expression at 3 uM measured by ChIP-seq analysis relative to control cells
[17] = biological target: Histone-lysine N-methyltransferase EZH2 (Mus musculus) (UniProt Q61188); assay: Inhibition of EZH2 in mouse B16-F1 migrating cells assessed as fold change in H3K27me3-buffered regulated Fam212a-mRNA expression at 3 uM measured by ChIP-seq analysis relative to control cells
[18] = biological target: Histone-lysine N-methyltransferase EZH2 (Mus musculus) (UniProt Q61188); assay: Inhibition of EZH2 in mouse B16-F1 migrating cells assessed as fold change in H3K27me3-buffered regulated Tns3-mRNA expression at 3 uM measured by ChIP-seq analysis relative to control cells
[19] = biological target: Histone-lysine N-methyltransferase EZH2 (Mus musculus) (UniProt Q61188); assay: Inhibition of EZH2 in mouse B16-F1 migrating cells assessed as fold change in H3K27me3-independent regulated Gng4-mRNA expression at 3 uM measured by ChIP-seq analysis relative to control cells
[20] = biological target: T1, RNA polymerase II (Mus musculus) (UniProt P08775+Q8CFI7+P97760+A0A3Q4L2S8+Q80UW8+P61219+P62488+Q923G2+P60898+O08740+Q63871+P62876); assay: Inhibition of RNA polymerase II in mouse B16-F1 migrating cells assessed as fold change in Dse-RNA stability at 0.1 mM measured by ChIP-seq analysis relative to control cells
[21] = biological target: T1, RNA polymerase II (Mus musculus); assay: Inhibition of RNA polymerase II in mouse B16-F1 migrating cells assessed as fold change in Ddx10-RNA stability at 0.1 mM measured by ChIP-seq analysis relative to control cells
[22] = biological target: T1, RNA polymerase II (Mus musculus); assay: Inhibition of RNA polymerase II in mouse B16-F1 migrating cells assessed as fold change in Rsrc2-RNA stability at 0.1 mM measured by ChIP-seq analysis relative to control cells
[23] = biological target: T1, RNA polymerase II (Mus musculus); assay: Inhibition of RNA polymerase II in mouse B16-F1 migrating cells assessed as fold change in Wdr37-RNA stability at 0.1 mM measured by ChIP-seq analysis relative to control cells
[24] = biological target: T1, RNA polymerase II (Mus musculus); assay: Inhibition of RNA polymerase II in mouse B16-F1 migrating cells assessed as fold change in Selenbp1-RNA stability at 0.1 mM measured by ChIP-seq analysis relative to control cells
[25] = biological target: T1, RNA polymerase II (Mus musculus); assay: Inhibition of RNA polymerase II in mouse B16-F1 migrating cells assessed as fold change in Smg8-RNA stability at 0.1 mM measured by ChIP-seq analysis relative to control cells
[26] = biological target: T1, RNA polymerase II (Mus musculus); assay: Inhibition of RNA polymerase II in mouse B16-F1 migrating cells assessed as fold change in Pign-RNA stability at 0.1 mM measured by ChIP-seq analysis relative to control cells
[27] = biological target: T1, RNA polymerase II (Mus musculus); assay: Inhibition of RNA polymerase II in mouse B16-F1 migrating cells assessed as fold change in Thrap3-RNA stability at 0.1 mM measured by ChIP-seq analysis relative to control cells
[28] = biological target: T1, RNA polymerase II (Mus musculus); assay: Inhibition of RNA polymerase II in mouse B16-F1 migrating cells assessed as fold change in Rell1-RNA stability at 0.1 mM measured by ChIP-seq analysis relative to control cells
[29] = biological target: T1, RNA polymerase II (Mus musculus); assay: Inhibition of RNA polymerase II in mouse B16-F1 migrating cells assessed as fold change in Fbxl5-RNA stability at 0.1 mM measured by ChIP-seq analysis relative to control cells

CCCc1cc(C)[nH]c(=O)c1CNC(=O)c1cc(-c2ccnc(N3CCN(C)CC3)c2)cc2c1cnn2C(C)C
log2FC [1]: -0.38 | log2FC [2]: 0.51 | log2FC [3]: -0.6 | log2FC [4]: 0.76 | log2FC [5]: -0.45 | log2FC [6]: -0.4 | log2FC [7]: 0.62 | log2FC [8]: -0.39 | log2FC [9]: 0.43 | log2FC [10]: -0.42 | log2FC [11]: -0.54 | log2FC [12]: -0.76 | log2FC [13]: -0.63 | log2FC [14]: 0.45 | log2FC [15]: -0.41 | log2FC [16]: 0.96 | log2FC [17]: -0.74 | log2FC [18]: -0.4 | log2FC [19]: 1.33

OC[C@H]1O[C@@H](n2cnc3cc(Cl)c(Cl)cc32)[C@H](O)[C@@H]1O
log2FC [20]: -0.73 | log2FC [21]: -0.82 | log2FC [22]: -0.95 | log2FC [23]: -0.6 | log2FC [24]: 1.46 | log2FC [25]: -0.73 | log2FC [26]: -0.54 | log2FC [27]: -0.47 | log2FC [28]: -0.47 | log2FC [29]: -0.44
